# From the supplement of paper PMC8728848
# Some of the results follow.
# How the values were obtained:
# Assay in all cases: glycan array binding signal (z-score within array); higher = stronger binding
# Conditions in all cases: glycan notation: IUPAC condensed, linker removed
# [1] = target: Fuc(a1-2)[GalNAc(a1-3)]Gal(b1-3)GlcNAc(b1-6)GalNAc
# Summary of the method: (§1)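 Glycan array data were curated from 3228 arrays in the Consortium for Functional Glycomics database and kept only where the protein sequence was available. Glycan names were converted to IUPAC-condensed notation, and columns mapping to the same glycan were averaged. The binding signal is a within-array Z-score, averaged across arrays of the same protein sequence at different concentrations or buffers and across linkers. Negative Z-scores can be read as non-binding.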
# [2] = target: Fuc(a1-2)[GalNAc(a1-3)]Gal(b1-4)Glc
# Summary of the method: as §1
# [3] = target: Fuc(a1-2)[GalNAc(a1-3)]Gal(b1-4)GlcNAc
# Summary of the method: as §1
# [4] = target: Fuc(a1-2)[GalNAc(a1-3)]Gal(b1-4)GlcNAc(b1-2)Man
# Summary of the method: as §1
# [5] = target: Fuc(a1-2)[GalNAc(a1-3)]Gal(b1-4)GlcNAc(b1-2)Man(a1-3)[Fuc(a1-2)[GalNAc(a1-3)]Gal(b1-4)GlcNAc(b1-2)Man(a1-6)]Man(b1-4)GlcNAc(b1-4)GlcNAc
# Summary of the method: as §1
# [6] = target: Fuc(a1-2)[GalNAc(a1-3)]Gal(b1-4)GlcNAc(b1-2)Man(a1-3)[Fuc(a1-2)[GalNAc(a1-3)]Gal(b1-4)GlcNAc(b1-2)Man(a1-6)]Man(b1-4)GlcNAc(b1-4)[Fuc(a1-6)]GlcNAc
# Summary of the method: as §1
# [7] = target: Fuc(a1-2)[GalNAc(a1-3)]Gal(b1-4)GlcNAc(b1-3)Gal(b1-4)GlcNAc
# Summary of the method: as §1
# [8] = target: Fuc(a1-2)[GalNAc(a1-3)]Gal(b1-4)GlcNAc(b1-3)Gal(b1-4)GlcNAc(b1-3)Gal(b1-4)GlcNAc
# Summary of the method: as §1
# [9] = target: Fuc(a1-2)[GalNAc(a1-3)]Gal(b1-4)GlcNAc(b1-3)GalNAc
# Summary of the method: as §1
# [10] = target: Fuc(a1-2)[GalNAc(a1-3)]Gal(b1-4)GlcNAc(b1-3)[Fuc(a1-2)[GalNAc(a1-3)]Gal(b1-4)GlcNAc(b1-6)]GalNAc
# Summary of the method: as §1
# [11] = target: Fuc(a1-2)[GalNAc(a1-3)]Gal(b1-4)GlcNAc(b1-6)GalNAc
# Summary of the method: as §1
# [12] = target: Fuc(a1-2)[GalNAc(a1-3)]Gal(b1-4)[Fuc(a1-3)]GlcNAc
# Summary of the method: as §1
# [13] = target: Fuc(a1-2)[GalNAc(a1-3)]Gal(b1-4)[Fuc(a1-3)]GlcNAc(b1-3)GalNAc
# Summary of the method: as §1
# [14] = target: Fuc(a1-2)[GalNAc(a1-4)]Gal(b1-4)GlcNAc
# Summary of the method: as §1
# [15] = target: Fuc(a1-2)[GalNAc(b1-3)]Gal
# Summary of the method: as §1
# Fuc(a1-3)GlcNAc = target: Fuc(a1-3)GlcNAc
# Summary of the method: as §1
# [16] = target: Fuc(a1-3)[Gal(b1-4)]Glc6S
# Summary of the method: as §1
# [17] = target: Fuc(a1-3)[Gal(b1-4)]GlcNAc
# Summary of the method: as §1
# [18] = target: Fuc(a1-3)[Gal(b1-4)]GlcNAc(b1-2)Man
# Summary of the method: as §1
# [19] = target: Fuc(a1-3)[Gal(b1-4)]GlcNAc(b1-2)Man(a1-3)[Fuc(a1-3)[Gal(b1-4)]GlcNAc(b1-2)Man(a1-6)]Man(b1-4)GlcNAc(b1-4)GlcNAc
# Summary of the method: as §1
# [20] = target: Fuc(a1-3)[Gal(b1-4)]GlcNAc(b1-2)Man(a1-3)[Fuc(a1-3)[Gal(b1-4)]GlcNAc(b1-2)Man(a1-6)]Man(b1-4)GlcNAc(b1-4)[Fuc(a1-6)]GlcNAc
# Summary of the method: as §1
# [21] = target: Fuc(a1-3)[Gal(b1-4)]GlcNAc(b1-3)Gal(b1-3)[Fuc(a1-4)]GlcNAc
# Summary of the method: as §1
# [22] = target: Fuc(a1-3)[Gal(b1-4)]GlcNAc(b1-3)Gal(b1-4)[Fuc(a1-3)]GlcNAc
# Summary of the method: as §1
# [23] = target: Fuc(a1-3)[Gal(b1-4)]GlcNAc(b1-3)Gal(b1-4)[Fuc(a1-3)]GlcNAc(b1-3)Gal(b1-4)[Fuc(a1-3)]GlcNAc
# Summary of the method: as §1
# [24] = target: Fuc(a1-3)[Gal(b1-4)]GlcNAc(b1-3)GalNAc
# Summary of the method: as §1
# [25] = target: Fuc(a1-3)[Gal(b1-4)]GlcNAc(b1-6)GalNAc
# Summary of the method: as §1
# [26] = target: Fuc(a1-3)[Gal(b1-4)]GlcNAc(b1-6)[Gal(b1-3)GlcNAc(b1-3)]Gal(b1-4)Glc
# Summary of the method: as §1
# [27] = target: Fuc(a1-3)[Gal(b1-4)]GlcNAc6S
# Summary of the method: as §1
# [28] = target: Fuc(a1-3)[Gal3S(b1-4)]Glc
# Summary of the method: as §1
# [29] = target: Fuc(a1-3)[Gal3S(b1-4)]GlcNAc
# Summary of the method: as §1
# [30] = target: Fuc(a1-3)[Gal3S(b1-4)]GlcNAc6S
# Summary of the method: as §1
# [31] = target: Fuc(a1-3)[GalNAc(b1-4)]GlcNAc
# Summary of the method: as §1
# [32] = target: Fuc(a1-3)[GalNAc(b1-4)]GlcNAc6S
# Summary of the method: as §1
# Fuc(a1-4)GlcNAc = target: Fuc(a1-4)GlcNAc
# Summary of the method: as §1
# Fuc(b1-3)GlcNAc = target: Fuc(b1-3)GlcNAc
# Summary of the method: as §1
# Gal(a1-2)Gal = target: Gal(a1-2)Gal
# Summary of the method: as §1
# Gal(a1-3)Gal = target: Gal(a1-3)Gal
# Summary of the method: as §1
binder,measurement,setting,value
Pwp6 (Candida glabrata) (protein) MGSSHHHHHHSSGLVPRGSHMASANLPKLTNICQIPDNVKKTSGFKGEIRRIGLFPPGGDYTYLLKFPSTGSTASDTISLTTKPQLSTSGWFPSLFGHTYFIKADLLVYMVAYFVPTETGEYTFKLVNSDDAAVMYVGNPSAFPCGSIDTWPEPRKEDINVCDKISASTKLYMEKGLAYPVRLVWYNGGGDGQFNAQFIDPSGTTHTDWNGYVWQYDACTDCDYK,glycan array binding signal (z-score),[1],-0.126
same,glycan array binding signal (z-score),[2],-0.626
same,glycan array binding signal (z-score),[3],-0.481
same,glycan array binding signal (z-score),[4],-0.201
same,glycan array binding signal (z-score),[5],-0.155
same,glycan array binding signal (z-score),[6],0.167
same,glycan array binding signal (z-score),[7],0.506
same,glycan array binding signal (z-score),[8],0.091
same,glycan array binding signal (z-score),[9],0.542
same,glycan array binding signal (z-score),[10],-0.116
same,glycan array binding signal (z-score),[11],-0.042
same,glycan array binding signal (z-score),[12],-0.128
same,glycan array binding signal (z-score),[13],0.217
same,glycan array binding signal (z-score),[14],-0.729
same,glycan array binding signal (z-score),[15],-0.786
same,glycan array binding signal (z-score),Fuc(a1-3)GlcNAc,-0.741
same,glycan array binding signal (z-score),[16],1.1
same,glycan array binding signal (z-score),[17],-0.796
same,glycan array binding signal (z-score),[18],-0.434
same,glycan array binding signal (z-score),[19],-0.18
same,glycan array binding signal (z-score),[20],-0.155
same,glycan array binding signal (z-score),[21],-0.022
same,glycan array binding signal (z-score),[22],0.02
same,glycan array binding signal (z-score),[23],-0.24
same,glycan array binding signal (z-score),[24],-0.157
same,glycan array binding signal (z-score),[25],0.007
same,glycan array binding signal (z-score),[26],-0.265
same,glycan array binding signal (z-score),[27],0.39
same,glycan array binding signal (z-score),[28],-0.358
same,glycan array binding signal (z-score),[29],-0.595
same,glycan array binding signal (z-score),[30],-0.723
same,glycan array binding signal (z-score),[31],-0.34
same,glycan array binding signal (z-score),[32],0.126
same,glycan array binding signal (z-score),Fuc(a1-4)GlcNAc,-0.712
same,glycan array binding signal (z-score),Fuc(b1-3)GlcNAc,-0.751
same,glycan array binding signal (z-score),Gal(a1-2)Gal,-0.745
same,glycan array binding signal (z-score),Gal(a1-3)Gal,0.776

# 2 successive records out of the list so far, quoted:
binder,measurement,setting,value
Pwp6 (Candida glabrata) (protein) MGSSHHHHHHSSGLVPRGSHMASANLPKLTNICQIPDNVKKTSGFKGEIRRIGLFPPGGDYTYLLKFPSTGSTASDTISLTTKPQLSTSGWFPSLFGHTYFIKADLLVYMVAYFVPTETGEYTFKLVNSDDAAVMYVGNPSAFPCGSIDTWPEPRKEDINVCDKISASTKLYMEKGLAYPVRLVWYNGGGDGQFNAQFIDPSGTTHTDWNGYVWQYDACTDCDYK,glycan array binding signal (z-score),[29],-0.595
same,glycan array binding signal (z-score),[30],-0.723
